PubChem BioAssay AID652259 | Drosophila RNAi Screening Center – 2013

Screen: 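Identify new Wingless signalling regulators in fly cells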 (primary screen)
Cells: Drosophila clone 8 imaginal disc epithelial cells
Knock-down reagent: long dsRNA against Drosophila genes
Challenge: pathway stimulated by co-transfected Wingless expression plasmid
Measured: 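Dual luciferase reads per well after Wingless plasmid stimulation: reporter firefly light and Renilla control light; activity is firefly divided by Renilla, a ratio not deposited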
Scale: firefly reporter light: higher = more Wg reporter light, before normalisation; Renilla control light: higher = more transfected or surviving cells
Active means: 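a knock-down is a candidate when at least two out of four statistical tests show it departing from its plate mean; one test alone signals a weak candidate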
Calls: active = candidate regulator (raises or lowers reporter); inactive = not a candidate
The screen tested about 22,000 reagents; shown is an unselected part of those that have a named target and a result. In the full data, 233 (1.1%) were called active. 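Light values are raw, unnormalised plate reads; the ratio scores behind the reporter calls were not deposited.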 Not given: the amount of reagent, the time to read-out, the dose of the treatment.

predicted target	amplicon	firefly reporter light, replicate 1	firefly reporter light, replicate 2	Renilla control light, replicate 1	Renilla control light, replicate 2	outcome
vig2	DRSC14402	2704	6688	1133	1704	inactive
Trf4-2	DRSC15237	18493		15778		inactive
CG5149	DRSC02819	8612		4052		inactive
Hdc	DRSC07439	7697		2800		inactive
CG6262	DRSC06971	6603		1060		inactive
AhcyL2	DRSC14107	13385		3075		inactive
CG8388	DRSC07157	5052		1590		inactive
CG9119	DRSC08620	16521		5771		inactive
CG8746	DRSC07257	2536	7504	819	3108	inactive

Next part (2 carried over from the part before).
predicted target	amplicon	firefly reporter light, replicate 1	firefly reporter light, replicate 2	Renilla control light, replicate 1	Renilla control light, replicate 2	outcome
CG9119	DRSC08620	16521		5771		inactive
CG8746	DRSC07257	2536	7504	819	3108	inactive
Reg-2	DRSC08690	10429		3370		inactive
Smurf	DRSC07641	5205		1779		inactive
CG1835	DRSC20560	13620		10026		inactive
U2A	DRSC06445	2583	6336	864	2448	inactive
Cht10	DRSC03766	3424	5290	981	2384	inactive
Cht10	DRSC03767	8816		2549		inactive
Cht10	DRSC03768	2624	6315	866	2932	inactive
AP-2sigma	DRSC15957	38292		6880		inactive
CG5938	DRSC15923	4800	10968	824	835	inactive
ScsbetaG	DRSC11294	1619	7618	1221	4666	inactive
muskelin	DRSC07273	5219		2080		inactive
CG1662	DRSC19754	4129	9035	1204	2848	inactive
CG11655	DRSC19413	15632		8176		inactive
RpS19b	DRSC15773	19907		16777		inactive
Tm2	DRSC16887	15997		3883		inactive
CheB42c	DRSC04972	2941	7040	896	2936	inactive
eEF2	DRSC03737	2134	5244	552	2032	inactive
lncRNA:CR43302	DRSC12668	4699		1752		inactive
mRpL33	DRSC18319	17368		7011		inactive
Tig	DRSC03456	3729	4941	944	912	inactive
